Measured values from US7563613B2, “Detoxification and decontamination using nanotechnology therapy” (University of Florida, priority 2001, dated 2009).
Where a name gives a salt, the structure may show the parent alone.

Experiments:
[1] = proton NMR shift of donor-trinitrobenzene pi-pi complexes; format: physicochemical; conditions: chloroform-d
[2] = proton NMR shift of donor-N-methyl-3,5-dinitrobenzamide pi-pi complexes; format: physicochemical
[3] = chloroform-d, [donor:acceptor] = 60:1
[4] = 50:50 D20:CD3CN, [Donor:Acceptor] = 60:1

| Compound | Direction of shift ([1]; [donor:acceptor] = 60:1) | Shift (ppm, for acceptor) ([1]; [donor:acceptor] = 60:1) [ppm] | Direction of shift, Doublet [2, 3] | Direction of shift, Triplet [2, 3] | Shift (ppm, acceptor), Doublet [2, 3] | Shift (ppm, acceptor), Triplet [2, 3] | also measured |
| --- | --- | --- | --- | --- | --- | --- | --- |
| Cc1ccc(N)c(C)c1 [2,4-Dimethylaniline] | Upfield | 0.3086 | – | – | – | – | – |
| CC(=O)Nc1c(C)cccc1C [2,6-Dimethyl-acetanilide] | – | – | Upfield | Upfield | 0.0055 ppm | 0.1584 ppm | Direction of shift, Doublet ([2]; chloroform-d, [D:A] = 1:1): Downfield; Direction of shift, Triplet ([2]; chloroform-d, [D:A] = 1:1): Upfield; Shift (ppm, acceptor), Doublet ([2]; chloroform-d, [D:A] = 1:1): 0.00775 ppm; Shift (ppm, acceptor), Triplet ([2]; chloroform-d, [D:A] = 1:1): 0.0156 ppm |
| Cc1cccc(C)c1N [2,6-Dimethylaniline] | Upfield | 0.2995 | Upfield | Upfield | Doublet 0.0779 ppm | Triplet 0.0874 ppm | – |
| COc1ccc(C)cc1OC [3,4-Dimethoxytoluene] | Upfield | 0.2730 | – | – | – | – | Direction of shift ([1]; at concentration in literature): Upfield; Shift (ppm, for acceptor) ([1]; at concentration in literature): 0.1868 ppm |
| Cc1cc(C)cc(N)c1 [3,5-Dimethylaniline] | Upfield | 0.2647 | – | – | – | – | – |
| CCCCN1CCCCC1C(=O)Nc1c(C)cccc1C (centres unmarked) [Bupivacaine (salt), Bupivacaine] | – | – | – | – | – | – | Direction of shift, Doublet [2, 4]: Upfield; Direction of shift, Triplet [2, 4]: Upfield; Shift (ppm, acceptor), Doublet [2, 4]: Doublet 0.0275 ppm; Shift (ppm, acceptor), Triplet [2, 4]: Triplet 0.0891 ppm |
